Measured values as given in patent US20030028002A1.
No constants are given. Whether binding was seen depends on the method and setting. For part of these data: In cells and extracts the contact can be indirect. Some binding calls cover weakened binding; strength is not graded here. For part of these data: Where a sequence is shown, tags or fusion partners need not be part of it.

Chains of the proteins cited; added tags and fusions are not shown. Lines headed by an entry give the natural chain unless they say otherwise; changes in a name come on top.
UniProt P25322: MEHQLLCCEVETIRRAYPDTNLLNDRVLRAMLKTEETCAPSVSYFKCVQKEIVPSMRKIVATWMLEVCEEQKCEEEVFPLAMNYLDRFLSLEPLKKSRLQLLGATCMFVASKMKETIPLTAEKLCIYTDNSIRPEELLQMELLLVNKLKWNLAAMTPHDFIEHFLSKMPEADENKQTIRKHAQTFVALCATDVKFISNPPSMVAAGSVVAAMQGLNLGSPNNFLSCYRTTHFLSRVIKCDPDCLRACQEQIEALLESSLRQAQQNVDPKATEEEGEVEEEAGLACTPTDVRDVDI
UniProt P04386: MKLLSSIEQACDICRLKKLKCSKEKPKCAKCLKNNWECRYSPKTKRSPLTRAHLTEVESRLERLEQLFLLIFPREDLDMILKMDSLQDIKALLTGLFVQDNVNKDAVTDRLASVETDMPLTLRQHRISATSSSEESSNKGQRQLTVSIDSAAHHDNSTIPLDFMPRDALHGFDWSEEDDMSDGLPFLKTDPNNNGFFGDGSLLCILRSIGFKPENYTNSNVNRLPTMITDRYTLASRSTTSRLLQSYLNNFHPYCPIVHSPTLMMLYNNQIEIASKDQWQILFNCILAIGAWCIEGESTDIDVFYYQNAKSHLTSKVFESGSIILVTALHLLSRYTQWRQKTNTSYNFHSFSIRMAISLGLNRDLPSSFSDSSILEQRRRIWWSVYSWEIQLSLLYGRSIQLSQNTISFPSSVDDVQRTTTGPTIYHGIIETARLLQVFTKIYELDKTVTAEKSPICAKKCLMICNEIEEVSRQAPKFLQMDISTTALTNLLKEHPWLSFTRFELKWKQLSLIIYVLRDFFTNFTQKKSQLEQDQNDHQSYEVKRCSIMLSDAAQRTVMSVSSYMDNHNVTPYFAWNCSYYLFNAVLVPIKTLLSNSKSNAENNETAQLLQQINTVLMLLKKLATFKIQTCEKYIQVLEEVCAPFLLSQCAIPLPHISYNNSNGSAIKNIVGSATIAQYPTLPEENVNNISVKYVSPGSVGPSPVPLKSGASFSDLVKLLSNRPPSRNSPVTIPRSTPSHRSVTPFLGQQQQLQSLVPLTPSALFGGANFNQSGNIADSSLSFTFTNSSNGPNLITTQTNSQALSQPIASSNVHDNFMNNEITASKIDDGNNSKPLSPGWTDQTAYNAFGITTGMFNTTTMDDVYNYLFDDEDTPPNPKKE
UniProt P30280: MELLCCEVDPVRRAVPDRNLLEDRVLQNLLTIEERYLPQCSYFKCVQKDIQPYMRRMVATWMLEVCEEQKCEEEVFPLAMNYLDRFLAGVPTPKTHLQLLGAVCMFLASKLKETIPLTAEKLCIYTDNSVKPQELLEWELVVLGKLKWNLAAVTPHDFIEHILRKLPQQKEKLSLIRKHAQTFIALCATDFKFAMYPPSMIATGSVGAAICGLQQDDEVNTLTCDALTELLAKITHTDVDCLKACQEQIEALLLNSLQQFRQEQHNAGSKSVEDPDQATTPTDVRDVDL

Key:
cyclin D1 (mouse) = cyclin D1 (mouse) (UniProt P25322); experiment: coexpression in Sf9 cells, coprecipitation with antiserum to the DMP1 C-terminus
[1] = target: T1, GAL4 DNA-binding domain fused to full length mouse cyclin D2 (bait, pAS2cycD2) (yeast; mouse) (UniProt P04386+P30280); experiment: yeast two-hybrid
[2] = target: T1, GAL4 DNA-binding domain fused to full length mouse cyclin D2 (bait, pAS2cycD2) (yeast; mouse); experiment: yeast two-hybrid, GAL4 activation domain fusion against the GAL4 DNA-binding domain-cyclin D2 bait

binding (cyclin D1 (mouse)) | binding [1] | binding [2] | Binder
binds |  |  | DMP1 (cyclin D-binding myb-like protein), murine, full length (protein, multiple phosphorylated forms when made in Sf9 cells (sites not given)) MSTVEEDSDTVTVETVNSVTFTQDTDGNLILHCPQNDPDEVDSEDSTEPPHKRLCLSSEDDQSIDDATPCISVVALPLSENDQSFEVTMTATTEVADDELSEGTVTQIQILQNDQLDEISPLGTEEVSAVSQAWFTTKEDKDSLTNKGHKWKQGMWSKEEIDILMNNIERYLKARGIKDATEIIFEMSKDERKDFYRTIAWGLNRPLFAVYRRVLRMYDDRNHVGKYTPEEIEKLKELRIKHGNDWATIGAALGRSASSVKDRCRLMKDTCNTGKWTEEEEKRLAEVVHELTSTEPGDIVTQGVSWAAVAERVGTRSEKQCRSKWLNYLNWKQSGGTEWTKEDEINLILRIAELDVADENDINWDLLAEGWSSVRSPQWLRSKWWTIKRQIANHKDVSFPVLIKGLKQLHENQKNNPVLLENKSGSGVPNSNCNSSVQHVQIRVARLEDNTAISPSPMAALQIPVQITHVSSTDSPAASADSETITLNSGTLQTFEILPSFPLQPTGTPGTYLLQTSSSQGLPLTLTTNPTLTLAAAAPASPEQIIVHALSPEHLLNTSDNVTVQCHTPRVIIQTVATEDITSSLSQEELTVDSDLHSSDFPEPPDALEADTFPDEIPRPKMTIQPSFNNAHVSKFSDQNSTELMNSVMVRTEEEIADTDLKQEEPPSDLASAYVTEDLESPTIVHQVHQTIDDETILIVPSPHGFIQASDVIDTESVLPLTTLTDPIFQHHQEASNIIGSSLGSPVSEDSKDVEDLVNCH
 | binds | binds | GAL4 activation domain fused to DMP1 residues 176-761 (clone from the two-hybrid screen) (protein, not shown: large carriers) GIKDATEIIFEMSKDERKDFYRTIAWGLNRPLFAVYRRVLRMYDDRNHVGKYTPEEIEKLKELRIKHGNDWATIGAALGRSASSVKDRCRLMKDTCNTGKWTEEEEKRLAEVVHELTSTEPGDIVTQGVSWAAVAERVGTRSEKQCRSKWLNYLNWKQSGGTEWTKEDEINLILRIAELDVADENDINWDLLAEGWSSVRSPQWLRSKWWTIKRQIANHKDVSFPVLIKGLKQLHENQKNNPVLLENKSGSGVPNSNCNSSVQHVQIRVARLEDNTAISPSPMAALQIPVQITHVSSTDSPAASADSETITLNSGTLQTFEILPSFPLQPTGTPGTYLLQTSSSQGLPLTLTTNPTLTLAAAAPASPEQIIVHALSPEHLLNTSDNVTVQCHTPRVIIQTVATEDITSSLSQEELTVDSDLHSSDFPEPPDALEADTFPDEIPRPKMTIQPSFNNAHVSKFSDQNSTELMNSVMVRTEEEIADTDLKQEEPPSDLASAYVTEDLESPTIVHQVHQTIDDETILIVPSPHGFIQASDVIDTESVLPLTTLTDPIFQHHQEASNIIGSSLGSPVSEDSKDVEDLVNCH
